From patent US20030203415A1 (published 2003)
These are yes or no findings as the source states them, for the method shown. Some results given as binding are weak or reduced against the parent protein; the word gives no strength.

T1: H6NA3 (UniProt P06731 35-144; P06731 499-590, limits assumed)
T1 construct: domain: N domain;domain: A3 domain; recombinant truncated target
T1 sequence: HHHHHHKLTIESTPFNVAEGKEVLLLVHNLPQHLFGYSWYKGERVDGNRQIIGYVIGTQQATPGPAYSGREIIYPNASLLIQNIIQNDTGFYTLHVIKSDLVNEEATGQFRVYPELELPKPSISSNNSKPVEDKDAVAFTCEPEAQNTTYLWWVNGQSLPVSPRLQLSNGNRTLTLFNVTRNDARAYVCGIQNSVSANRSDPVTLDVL


Tests used:
H6NA3 [1] = target: T1, H6NA3; assay: phage ELISA on NA3
H6NA3 [2] = target: T1, H6NA3; assay: phage ELISA, varying amounts of NA3 per well
H6NA3 [3] = target: T1, H6NA3; assay: phage ELISA on dried H6NA3 plate
H6NA3 [4] = target: T1, H6NA3; assay: phage ELISA on H6NA3

binding (H6NA3 [1]) | Binder | also measured
binds | DWVCEFFGMQWTCNLL [304A-15-F12] | 
binds | DWVCELFKPQWFCNIL [304A-15-H07] | 
binds | NWVCEWLKPQWWCNSY [304A-15-G08] | 
binds | DWVCEYFKNQWFCNVL [304A-12-H12] | binding (H6NA3 [2]): binds
 | NWFCEMIGRQWGCVPS [TN10/9-F11] | binding (H6NA3 [3]): binds
binds | DWYCNLFKNQWFCDLV [304A-15-E07] | 
binds | DWVCEYAKFQWICNIL [304A-15-H12] | 
binds | NWVCNLFKNQWFCDEM [304A-15-G07] | 
binds | NWVCDYWKPQWFCNSY [304A-15-B07] | 
binds | DWVCNLFKNQWFCDTL [304A-14-A12] | binding (H6NA3 [2]): binds
 | NWDCMFGAEGWACSPW [TN10/9-E01] | binding (H6NA3 [3]): binds
binds | DWVCNLFKNQWFCDVP [304A-14-B02] | binding (H6NA3 [2]): binds
binds | DWVCEYFKSQWMCNML [304A-15-G11] | 
 | RYCEFFPWSLHCGRP (also called TN10/9 Isolate B10) [B10] | binding (H6NA3 [4]): no binding
 | DWVCENKKDQWTCNLL [AB-A07] | binding (H6NA3 [3]): binds; binding (H6NA3 [2]): binds
 | DWVCNFDQGLAHCFPS [TN10/9-D04] | binding (H6NA3 [3]): binds
binds | DWVCEWSKMQWSCNAL [304A-15-B08] | 
binds | DWICNLFKNQWFCGPL [304A-15-E04] | binding (H6NA3 [2]): binds
binds | DWVCEFFKPQWMCNIL [304A-15-H09] | 
binds | DWVCDYKFFQWTCNLL [304A-15-F08] | 
 | NWVCNLFKNQWFCNSY (also called TN10/9 Isolate G08) [FX-G08] | binding (H6NA3 [3]): binds; binding (H6NA3 [2]): binds
 | NWRCKLFPRYPYCSSW (also called TN10/9 Isolate G01) [G01] | binding (H6NA3 [4]): no binding
